# Assay results published in article PMC4741949.
# The exact form of at least one protein or probe is not confirmed. At least one result comes from cells or an extract, where the contact may be indirect.
# Tests used:
# EGFRvIII (human) [1] = target: EGFRvIII (human) (UniProt P00533); assay: cell binding RT-qPCR; settings: 2'F-pyrimidines (2'F-C, 2'F-U), RT-qPCR: 15 min 37 C, 100 ug/ml polyinosine, DPBS washes, confocal: DMEM without FBS, UV cross-linking buffer not given, protein on the cell surface
# EGFRvIII (human) [2] = target: EGFRvIII (human) (UniProt P00533); assay: cell binding (method not given); settings: VS-GB/EGFRvIII cells (no EGFRwt), control cells not recognized; 2'F-pyrimidines (2'F-C, 2'F-U); RT-qPCR: 15 min 37 C, 100 ug/ml polyinosine, DPBS washes; confocal: DMEM without FBS; UV cross-linking buffer not given; protein on the cell surface
# EGFRvIII (human) [3] = target: EGFRvIII (human) (UniProt P00533); assay: flow cytometry; settings: U87MG/EGFRvIII cells, 2 uM, higher than parental U87MG; 2'F-pyrimidines (2'F-C, 2'F-U); flow cytometry: DPBS, 37 C, 30 min; protein on the cell surface; label: 5' FAM
# EGFRvIII (human) [4] = target: EGFRvIII (human) (UniProt P00533); assay: confocal microscopy; settings: NIH/EGFRvIII cells, 2.5 uM FAM-CL4, very little to no signal on NIH/ctr; 2'F-pyrimidines (2'F-C, 2'F-U); RT-qPCR: 15 min 37 C, 100 ug/ml polyinosine, DPBS washes; confocal: DMEM without FBS; UV cross-linking buffer not given; protein on the cell surface; label: 5' FAM
Sequence,"binding result (EGFRvIII (human) [1]; NIH/EGFRvIII cells, 200 and 400 nM, dose dependent, 15 min, polyinosine, no binding to NIH/ctr)","binding result (EGFRvIII (human) [1]; U87MG/EGFRvIII cells, higher than parental U87MG)",binding result (EGFRvIII (human) [2]),binding result (EGFRvIII (human) [3]),binding result (EGFRvIII (human) [4])
GCCUUAGUAACGUGCUUUGAUGUCGAUUCGACAGGAGGC [CL4],binds,binds,binds,–,–
GCCUUAGUAACGUGCUUUGAUGUCGAUUCGACAGGAGGC [FAM-CL4],–,–,–,binds,binds
